From the supplement of paper PMC10338343
± gives the standard deviation. The entries are a selection whose mix differs from that of the whole data set. Many entries were measured with a wide error. This is one part of the list.

Columns and labels:
[1] = tested on: MIWI (PIWIL1) piRISC loaded with L1MC piRNA (30 nt); test: pre-steady-state target cleavage rate (min^-1); higher = faster piRNA-guided slicing of the target; conditions: guide: L1MC piRNA 5'p-UAACUAAAUACUAUGCAAGCUGUAGGUCCU;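 further: 1 nM active piRISC with 0.1 nM target library at 33 °C single turnover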
In short: (§1)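 For Cleave-'n-Seq, a transcribed, DNA-blocked target RNA library […] met 1 nM active affinity-purified piRISC with one synthetic guide at 33 °C for 0–8 or 0–960 min in HEPES–potassium acetate buffer, with or without 500 nM GTSF1 partner protein. Uncleaved targets were sequenced and normalised to depth and weakly complementary targets, with three trials pooled and k3 capped at 0.0001 min^-1. A burst-and-steady-state fit supplied the pre-steady-state cleavage rate.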

[2] = tested on: EfPiwi piRISC loaded with L1MC piRNA (26 nt); test: pre-steady-state target cleavage rate (min^-1); guide: L1MC piRNA 5'p-UAACUAAAUACUAUGCAAGCUGUAGG; MIWI and MILI are mouse PIWI proteins and EfPiwi is from a freshwater sponge; tags in brackets are library labels; higher = faster piRNA-guided slicing of the target
In short: as §1

[3] = auxiliary factor: none (no GTSF1)
[4] = auxiliary factor: 500 nM Ephydatia muelleri Gtsf1
[5] = auxiliary factor: none (no Gtsf1)

| Sequence | pre-steady-state target cleavage rate [1, 3] | pre-steady-state target cleavage rate [2, 4] | pre-steady-state target cleavage rate [2, 5] | pre-steady-state target cleavage rate ([1]; auxiliary factor: 500 nM mouse GTSF1) |
| --- | --- | --- | --- | --- |
| UCCUGGAUGACGAUGCAUAGUAUUUAGUUA | 0.00288 ± 0.0029 | 0.00546 ± 0.0027 | 0.00153 ± 0.007 | – |
| UCCUGGAACAGGAUGCAUAGUAUUUAGUAA | 0.00174 ± 0.0028 | 0.0055 ± 0.0028 | 0.000325 ± 0.013 | – |
| UCCUGGAUGUCGAUGCAUAGUAGUUUAGUUA | 0.000977 ± 0.0081 | 0.00123 ± 0.0067 | 0.000198 ± 0.056 | – |
| UCCUGGAUGUCGUGGCAUAGUAUUUAGUUA | 0.00269 ± 0.0036 | 0.00281 ± 0.0046 | 0.000309 ± 0.032 | – |
| UCCUGGAUCAGCUUCGAUAGUAUUUAGUAA | 0.00148 ± 0.0041 | 0.000629 ± 0.0058 | 0.000506 ± 0.013 | – |
| UCCUGGAUGUCGUUGCAUACUAUUUAGUUA | 0.00206 ± 0.0033 | 0.00174 ± 0.0026 | 0.000218 ± 0.03 | – |
| UCCUGGAUGUCCUUGCAUAGUAUAUACUUA | 0.00135 ± 0.0048 | 0.00158 ± 0.0061 | 0.000408 ± 0.016 | – |
| UCCUGGAUGAGCUUGCAUACAUAAAUCAAA [g12:g21:cont:t1A] | 0.000152 ± 0.023 | 0.000175 ± 0.022 | 0.000496 ± 0.022 | – |
| UCCUCCUACAGCUUGCAUAGUAAUUACAAA | 0.000522 ± 0.011 | 0.00353 ± 0.0025 | 0.000553 ± 0.011 | – |
| UCCUGGAUGUGCUAGGAUAGUAUUUAGUUA | 0.00131 ± 0.0057 | 0.0009 ± 0.005 | 0.000286 ± 0.036 | – |
| UCCUGGAUGUGGUAGCAUAGUAUUUAGUUA | 0.002 ± 0.0054 | 0.00356 ± 0.0033 | 0.0041 ± 0.0053 | – |
| UCCUGGAUGUCGAUGCAUAGUAUUUAAGUUA | 0.00128 ± 0.0058 | 0.00522 ± 0.0045 | 0.000254 ± 0.028 | – |
| UCCUGGAUGUCGAAGCAUAGUAUUUAGUUU [g2:g16:cont:t1U] | 0.00161 ± 0.0038 | 0.00204 ± 0.0033 | < 0.0001 | – |
| UCCUGGAUGUCGAUGCAUAGUAUUAUCAAA [g7:g17:cont:t1A] | 0.000601 ± 0.0088 | 0.000775 ± 0.0076 | 0.000261 ± 0.018 | – |
| UCCUGGAUGUCGAACCUUUGUAUUUAGUUA | 0.000358 ± 0.011 | 0.000338 ± 0.013 | 0.000184 ± 0.031 | – |
| UCCUGGAUCAGCUUCCAAAGUAUUUAGUUA | 0.00154 ± 0.0027 | 0.00404 ± 0.0027 | 0.000179 ± 0.05 | – |
| UCCUGGUACAGCUUGCAGUAGUAUUUAGUUA | 0.00103 ± 0.0062 | 0.0022 ± 0.0047 | 0.00194 ± 0.0067 | – |
| UCCUGCUACAGGUUGCAUAGUAUUUACAAA | 0.00144 ± 0.0053 | 0.00244 ± 0.0017 | < 0.0001 | – |
| UCCUGCUACAGCUUGCAUAGUAAAUAGAAA | 0.000333 ± 0.011 | 0.00185 ± 0.0022 | 0.000342 ± 0.025 | – |
| UCCUGGAUGUCGAAGCAUAGUAUUUAGUUA [g2:g16:cont:t1A] | 0.00228 ± 0.0024 | 0.00352 ± 0.002 | 0.00105 ± 0.0072 | – |
| UCCUGGUACAGGAAGCAUAGUAUUUUCAAA | 0.000507 ± 0.012 | 0.000368 ± 0.011 | 0.000529 ± 0.012 | – |
| UCCUGGAUGAGCUUGGAUAGUAUUUACUUA | – | 0.00069 ± 0.0084 | 0.00013 ± 0.06 | 0.00323 ± 0.0043 |
| UCCUGGAACUCCUUGCAUAGUAUUUAGAAA | 0.00192 ± 0.0031 | 0.00313 ± 0.0019 | 0.00012 ± 0.048 | – |
| UCCUGGAUGUCCUAGCAUAGUAUUUACUUA | 0.00113 ± 0.0053 | 0.000371 ± 0.0079 | 0.000404 ± 0.021 | – |
| UCCUCCUACAGCUACCAUAGUAUUUUCAAA | 0.000603 ± 0.011 | 0.000706 ± 0.0052 | 0.000142 ± 0.032 | – |
| UCCUGGAUGUCCAUGCAUAGUAUUUAGUUA | 0.00244 ± 0.0028 | 0.00171 ± 0.0034 | 0.00073 ± 0.011 | – |

Quoted from the results shown (2 entries):

| Sequence | pre-steady-state target cleavage rate [1, 3] | pre-steady-state target cleavage rate [2, 4] | pre-steady-state target cleavage rate [2, 5] | pre-steady-state target cleavage rate ([1]; auxiliary factor: 500 nM mouse GTSF1) |
| --- | --- | --- | --- | --- |
| UCCUGGAUCAGCUUCGAUAGUAUUUAGUAA | 0.00148 ± 0.0041 | 0.000629 ± 0.0058 | 0.000506 ± 0.013 | – |
| UCCUGGAUGUCGUUGCAUACUAUUUAGUUA | 0.00206 ± 0.0033 | 0.00174 ± 0.0026 | 0.000218 ± 0.03 | – |
